Test results from PMC6335053.
Results are given in words; binding and its absence hold for the method and conditions named. Some binding calls cover weakened binding; strength is not graded here.

Sequences of proteins named here, by UniProt entry; tags and fusion partners are left off. A change or cut given only in a name is not applied to a line headed by its entry.
UniProt P08172: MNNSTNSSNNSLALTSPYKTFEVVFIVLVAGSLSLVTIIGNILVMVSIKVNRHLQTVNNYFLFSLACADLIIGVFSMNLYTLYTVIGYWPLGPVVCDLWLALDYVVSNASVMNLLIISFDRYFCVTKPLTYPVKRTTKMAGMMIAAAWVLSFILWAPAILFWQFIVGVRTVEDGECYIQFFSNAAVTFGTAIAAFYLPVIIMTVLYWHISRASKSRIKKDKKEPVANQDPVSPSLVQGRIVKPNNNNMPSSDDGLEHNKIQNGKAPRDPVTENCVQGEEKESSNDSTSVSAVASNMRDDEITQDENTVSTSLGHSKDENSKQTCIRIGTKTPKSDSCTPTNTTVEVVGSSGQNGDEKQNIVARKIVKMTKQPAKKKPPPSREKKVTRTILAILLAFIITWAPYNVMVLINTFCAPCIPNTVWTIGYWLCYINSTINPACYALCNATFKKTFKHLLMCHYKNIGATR
UniProt P48544: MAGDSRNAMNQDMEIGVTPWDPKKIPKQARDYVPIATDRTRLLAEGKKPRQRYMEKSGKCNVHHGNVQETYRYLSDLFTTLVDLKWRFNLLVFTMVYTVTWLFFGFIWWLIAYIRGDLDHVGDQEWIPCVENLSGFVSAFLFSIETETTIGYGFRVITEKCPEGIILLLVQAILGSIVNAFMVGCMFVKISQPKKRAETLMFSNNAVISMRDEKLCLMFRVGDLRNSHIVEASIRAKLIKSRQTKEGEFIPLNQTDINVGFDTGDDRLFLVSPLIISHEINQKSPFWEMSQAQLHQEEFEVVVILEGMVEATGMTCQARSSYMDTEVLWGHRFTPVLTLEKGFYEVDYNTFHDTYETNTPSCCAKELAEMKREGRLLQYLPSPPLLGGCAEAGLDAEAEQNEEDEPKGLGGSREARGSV

Target: M2R-GIRK concatemer (Halo-M2R-GIRK4-SNAP) (human) (UniProt P08172+P48544)
Experiment: SDS-PAGE with Western blot; HEK-293T cells transiently transfected with GPCR-GIRK4 concatemers, mixed with loading buffer containing 4% SDS and 10% β-mercaptoethanol; NuPAGE 4-12% Bis-Tris gels; anti-SNAP-tag or anti-HaloTag

Question: “M2R-GIRK concatemer (Halo-M2R-GIRK4-SNAP) (from UniProt P08172 1-466; P48544 1-419)” was tested. Which binding did it give?
Answer: binds
